Assay [1] addresses mouse L1CAM (purified extracellular domain with S1 tag) (mouse) (UniProt P11627). Nature of the assay: indirect ELISA on coated mouse L1CAM, mutant IgG in culture supernatant, relative to Ab4. A general note: An ELISA detects its analyte on a solid surface through an enzyme-linked reagent.
The target is the same in assay [2]. As to the kind of experiment: indirect ELISA on coated antigen, culture supernatant.
For assay [3] the target is unchanged. Nature of the assay: indirect ELISA of the 6 clones.
Assay [4] has the same target. As to the kind of experiment: indirect ELISA of clone culture supernatants.
Assay [5] concerns the target mouse L1CAM on cells (B16F1 melanoma cells; normal mouse tissue) (mouse) (UniProt P11627). Nature of the assay: flow cytometry on B16F1 cells.
Assay [6] shares this target. As to the kind of experiment: flow cytometry on B16F1 cells (figure legend). On the technique in general: In flow cytometry, cells or beads pass a laser one at a time.
Assay [7] shares this target. As to the kind of experiment: flow cytometry on L1CAM-positive and L1CAM-negative cells.
For assay [8] the target is unchanged. As to the kind of experiment: flow cytometry on B16F1 cells, anti-human IgG(Fc)-FITC.
Assay [9] has the same target. Nature of the assay: immunohistochemistry on frozen sections of normal mouse tissue, 2.5 µg/ml antibody.
Assay [10] has as its target Ig5 domain-hFc fusion protein of human L1CAM (human) (UniProt P32004). Nature of the assay: FACS of yeast-displayed scFv with Ig5-hFc.
The target is the same in assay [11]. As to the kind of experiment: FACS of yeast-displayed scFv with Ig5-hFc at 1×10^-5 to 1×10^-8 M.
The target is the same in assay [12]. As to the kind of experiment: FACS of yeast-displayed scFv with Ig5-hFc at 1×10^-8 M.

Protein sequences, listed by entry. Tags and fused reporters are not part of them. Lines headed by an entry give the natural chain unless they say otherwise; changes in a name come on top. Chains listed by the source or under a name are the forms on record and can include a tag or linker. Residues count along the entry.
UniProt P11627: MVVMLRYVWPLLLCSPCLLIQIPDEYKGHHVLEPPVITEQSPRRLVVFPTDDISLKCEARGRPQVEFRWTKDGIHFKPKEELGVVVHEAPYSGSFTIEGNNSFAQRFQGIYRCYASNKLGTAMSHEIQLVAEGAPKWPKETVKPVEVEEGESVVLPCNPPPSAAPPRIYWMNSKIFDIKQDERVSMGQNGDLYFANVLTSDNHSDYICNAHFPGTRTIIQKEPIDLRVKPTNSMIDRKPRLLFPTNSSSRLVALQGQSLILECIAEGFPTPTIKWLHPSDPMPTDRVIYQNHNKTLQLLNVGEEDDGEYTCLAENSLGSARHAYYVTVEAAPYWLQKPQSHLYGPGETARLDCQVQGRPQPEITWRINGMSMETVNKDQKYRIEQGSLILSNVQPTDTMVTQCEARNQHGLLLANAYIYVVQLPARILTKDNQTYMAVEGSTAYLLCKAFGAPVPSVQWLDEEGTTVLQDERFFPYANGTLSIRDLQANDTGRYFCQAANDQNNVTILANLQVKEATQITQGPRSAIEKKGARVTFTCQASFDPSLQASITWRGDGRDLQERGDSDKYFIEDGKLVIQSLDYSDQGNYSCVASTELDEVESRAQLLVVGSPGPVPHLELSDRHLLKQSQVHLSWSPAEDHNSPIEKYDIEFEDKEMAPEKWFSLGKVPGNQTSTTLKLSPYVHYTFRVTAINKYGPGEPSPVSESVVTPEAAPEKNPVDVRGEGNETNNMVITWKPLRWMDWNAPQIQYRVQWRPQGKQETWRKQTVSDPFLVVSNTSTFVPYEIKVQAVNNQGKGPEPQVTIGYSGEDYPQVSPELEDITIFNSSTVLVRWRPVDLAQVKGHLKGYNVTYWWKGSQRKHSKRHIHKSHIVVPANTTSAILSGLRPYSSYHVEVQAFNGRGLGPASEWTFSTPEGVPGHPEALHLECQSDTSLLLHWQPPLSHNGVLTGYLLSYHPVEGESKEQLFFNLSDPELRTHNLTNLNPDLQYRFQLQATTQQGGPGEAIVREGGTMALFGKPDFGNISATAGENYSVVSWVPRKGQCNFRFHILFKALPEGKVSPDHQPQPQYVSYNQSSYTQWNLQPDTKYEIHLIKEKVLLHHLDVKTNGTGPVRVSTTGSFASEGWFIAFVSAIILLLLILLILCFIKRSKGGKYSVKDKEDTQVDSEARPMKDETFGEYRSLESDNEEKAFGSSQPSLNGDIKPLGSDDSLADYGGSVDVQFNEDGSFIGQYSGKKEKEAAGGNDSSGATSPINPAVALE
mouse L1CAM on cells (B16F1 melanoma cells; normal mouse tissue): residues 20-1260 of P11627
mouse L1CAM (purified extracellular domain with S1 tag): residues 20-1123 of P11627
UniProt P32004, residues 421-512: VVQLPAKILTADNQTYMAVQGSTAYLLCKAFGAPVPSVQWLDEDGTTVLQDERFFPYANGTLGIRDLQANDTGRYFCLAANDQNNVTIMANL

Results are given in words; binding and its absence hold for the method and conditions named. Some entries that bind do so weakly or less than the wild type.

Our source for the binding values is patent US20150344571A1 (KANGWON NATIONAL UNIVERSITY UNIVERSITY INDUSTRY COOPERATION …, published 2015).

B1: R95A (antibody, V domains shown)
VH: EVQLVESGGGVVQPGRSLRLSCAASGFTFSRFGMHWVRQAPGKGLEWVAVISNDGSNKYYADSVKGRFTISRDNSKNTLYLQMNSLRPEDTAVYYCARGRHYGSGSLFDPWGQGTLVTVSS
VL: DIQLTQSPSSLSASVGDRVTITCRASRTISIYVNWYRQRPGKAPESLIYAASNLHSGVPSRFSGSGSGTDFTLTVSSLQPEDFGTYYCQQTHDTAQYTFGQGTKLEIK
Consider B1, for which, in assay [1], the binding entry is given as “binds”.

B2: V50F mutant of Ab4 (VH V50F with the V75I/G84A light chain) (antibody, V domains shown)
VH: EVQLVESGGGVVQPGRSLRLSCAASGFTFSRFGMHWVRQAPGKGLEWVAFISNDGSNKYYADSVKGRFTISRDNSKNTLYLQMNSLRPEDTAVYYCARGRHYGSGSLFDPWGQGTLVTVSS
VL: DIQLTQSPSSLSASVGDRVTITCRASRTISIYVNWYRQRPGKAPESLIYAASNLHSGVPSRFSGSGSGTDFTLTISSLQPEDFATYYCQQTHDTRQYTFGQGTKLEIK
As for B2, in assay [2], the binding result was “binds”.

B3: V50A mutant of Ab4 VH (antibody, V domains shown)
VH: EVQLVESGGGVVQPGRSLRLSCAASGFTFSRFGMHWVRQAPGKGLEWVAAISNDGSNKYYADSVKGRFTISRDNSKNTLYLQMNSLRPEDTAVYYCARGRHYGSGSLFDPWGQGTLVTVSS
VL: DIQLTQSPSSLSASVGDRVTITCRASRTISIYVNWYRQRPGKAPESLIYAASNLHSGVPSRFSGSGSGTDFTLTVSSLQPEDFGTYYCQQTHDTRQYTFGQGTKLEIK
On to B3, for which the binding entry in assay [2] was “binds”.

B4: I51A (antibody, V domains shown)
VH: EVQLVESGGGVVQPGRSLRLSCAASGFTFSRFGMHWVRQAPGKGLEWVAVASNDGSNKYYADSVKGRFTISRDNSKNTLYLQMNSLRPEDTAVYYCARGRHYGSGSLFDPWGQGTLVTVSS
VL: DIQLTQSPSSLSASVGDRVTITCRASRTISIYVNWYRQRPGKAPESLIYAASNLHSGVPSRFSGSGSGTDFTLTVSSLQPEDFGTYYCQQTHDTRQYTFGQGTKLEIK
In the case of B4, in [1], the binding entry is recorded as “binds”.

B5: Y96A (antibody, V domains shown)
VH: EVQLVESGGGVVQPGRSLRLSCAASGFTFSRFGMHWVRQAPGKGLEWVAVISNDGSNKYYADSVKGRFTISRDNSKNTLYLQMNSLRPEDTAVYYCARGRHYGSGSLFDPWGQGTLVTVSS
VL: DIQLTQSPSSLSASVGDRVTITCRASRTISIYVNWYRQRPGKAPESLIYAASNLHSGVPSRFSGSGSGTDFTLTVSSLQPEDFGTYYCQQTHDTRQATFGQGTKLEIK
B5: the binding result in assay [1] is “binds”.

B6: Ab4 (Fab-type clone from the phage library) (Fab, V domains shown)
VH: EVQLVESGGGVVQPGRSLRLSCAASGFTFSRFGMHWVRQAPGKGLEWVAVISNDGSNKYYADSVKGRFTISRDNSKNTLYLQMNSLRPEDTAVYYCARGRHYGSGSLFDPWGQGTLVTVSS
VL: DIQLTQSPSSLSASVGDRVTITCRASRTISIYVNWYRQRPGKAPESLIYAASNLHSGVPSRFSGSGSGTDFTLTVSSLQPEDFGTYYCQQTHDTRQYTFGQGTKLEIK
Regarding B6, the binding result in assay [3] and in assay [4] was “binds” in each case.

B7: Q95aA (antibody, V domains shown)
VH: EVQLVESGGGVVQPGRSLRLSCAASGFTFSRFGMHWVRQAPGKGLEWVAVISNDGSNKYYADSVKGRFTISRDNSKNTLYLQMNSLRPEDTAVYYCARGRHYGSGSLFDPWGQGTLVTVSS
VL: DIQLTQSPSSLSASVGDRVTITCRASRTISIYVNWYRQRPGKAPESLIYAASNLHSGVPSRFSGSGSGTDFTLTVSSLQPEDFGTYYCQQTHDTRAYTFGQGTKLEIK
B7: the binding entry in assay [1] is “binds”.

B8: T97A (antibody, V domains shown)
VH: EVQLVESGGGVVQPGRSLRLSCAASGFTFSRFGMHWVRQAPGKGLEWVAVISNDGSNKYYADSVKGRFTISRDNSKNTLYLQMNSLRPEDTAVYYCARGRHYGSGSLFDPWGQGTLVTVSS
VL: DIQLTQSPSSLSASVGDRVTITCRASRTISIYVNWYRQRPGKAPESLIYAASNLHSGVPSRFSGSGSGTDFTLTVSSLQPEDFGTYYCQQTHDTRQYAFGQGTKLEIK
Turning to B8, in assay [1], the binding entry is “binds”.

B9: H35A (antibody, V domains shown)
VH: EVQLVESGGGVVQPGRSLRLSCAASGFTFSRFGMAWVRQAPGKGLEWVAVISNDGSNKYYADSVKGRFTISRDNSKNTLYLQMNSLRPEDTAVYYCARGRHYGSGSLFDPWGQGTLVTVSS
VL: DIQLTQSPSSLSASVGDRVTITCRASRTISIYVNWYRQRPGKAPESLIYAASNLHSGVPSRFSGSGSGTDFTLTVSSLQPEDFGTYYCQQTHDTRQYTFGQGTKLEIK
As for B9, the binding result in assay [1] is “binds”.

B10: D93A mutant of Ab4 antibody (antibody, IgG1, V domains shown)
VH: EVQLVESGGGVVQPGRSLRLSCAASGFTFSRFGMHWVRQAPGKGLEWVAVISNDGSNKYYADSVKGRFTISRDNSKNTLYLQMNSLRPEDTAVYYCARGRHYGSGSLFDPWGQGTLVTVSS
VL: DIQLTQSPSSLSASVGDRVTITCRASRTISIYVNWYRQRPGKAPESLIYAASNLHSGVPSRFSGSGSGTDFTLTVSSLQPEDFGTYYCQQTHATRQYTFGQGTKLEIK
notes: Whole IgG made in the pdCMV-dhfrC-Ab4 vector (IgG1); also called VK D93A mutant
With B10, the binding entry in assay [2] is listed as “binds”.

B11: Ab4M antibody (antibody, IgG1, V domains shown)
VH: EVQLVESGGGVVQPGRSLRLSCAASGFTFSRFGMHWVRQAPGKGLEWVAFISNDGSNKYYADSVKGRFTISRDNSKNTLYLQMNSLRPEDTAVYYCARGRAYGSGSLFDPWGQGTLVTVSS
VL: DIQLTQSPSSLSASVGDRVTITCRASRTISIYVNWYRQRPGKAPESLIYAASNLHSGVPSRFSGSGSGTDFTLTISSLQPEDFATYYCQQTHATRQYTFGQGTKLEIK
notes: Ab4 with V50F and H97A in VH and V75I, G84A and D93A in VK; Whole IgG (IgG1 vector pdCMV-dhfrC-Ab4M)
Consider B11, for which the binding result in assay [5] and in assay [6] was “binds” throughout.

B12: H97A mutant of Ab4 antibody (antibody, IgG1, name in Kabat numbering, V domains shown)
VH: EVQLVESGGGVVQPGRSLRLSCAASGFTFSRFGMHWVRQAPGKGLEWVAVISNDGSNKYYADSVKGRFTISRDNSKNTLYLQMNSLRPEDTAVYYCARGRAYGSGSLFDPWGQGTLVTVSS
VL: DIQLTQSPSSLSASVGDRVTITCRASRTISIYVNWYRQRPGKAPESLIYAASNLHSGVPSRFSGSGSGTDFTLTVSSLQPEDFGTYYCQQTHDTRQYTFGQGTKLEIK
notes: Whole IgG made in the pdCMV-dhfrC-Ab4 vector (IgG1); also called VH H97A mutant of Ab4
Turning to B12, the binding entry in assay [2] is listed as “binds”.

B13: Ab417 antibody (antibody, V domains shown)
VH: EVQLVESGGGVVQPGRSLRLSCAASGFTFSRFGMHWVRQAPGKGLEWVAFISNDGSNKYYADSVKGRFTISRDNSKNTLYLQMNSLRPEDTAVYYCARGRAYGSGSLFDPWGQGTLVTVSS
VL: DIQLTQSPSSLSASVGDRVTITCRASRTISIYVNWYRQRPGKAPESLIYAASNLHSGVPSRFSGSGSGTDFTLTISSLQPEDFATYYCQQSIGRGVVTFGQGTKLEIK
notes: Whole IgG expressed from pdCMV-dhfrC-Ab417; also called IgG form of Ab4M-18 (codon-optimised)
As for B13, the binding entry in assay [7], in assay [8] and in assay [9] was “binds” in each case.

B14: Ab4M scFv displayed on the yeast surface (scFv, not shown: large carriers)
scFv: EVQLVESGGGVVQPGRSLRLSCAASGFTFSRFGMHWVRQAPGKGLEWVAFISNDGSNKYYADSVKGRFTISRDNSKNTLYLQMNSLRPEDTAVYYCARGRAYGSGSLFDPWGQGTLVTVSSGGGGSGGGGSGGGGSDIQLTQSPSSLSASVGDRVTITCRASRTISIYVNWYRQRPGKAPESLIYAASNLHSGVPSRFSGSGSGTDFTLTISSLQPEDFATYYCQQTHATRQYTFGQGTKLEIK
For B14, the binding entry in [10] and in assay [11] was “binds” each time.

B15: Ab4M-18 scFv displayed on the yeast surface (scFv, not shown: large carriers)
scFv: EVQLVESGGGVVQPGRSLRLSCAASGFTFSRFGMHWVRQAPGKGLEWVAFISNDGSNKYYADSVKGRFTISRDNSKNTLYLQMNSLRPEDTAVYYCARGRAYGSGSLFDPWGQGTLVTVSSGGGGSGGGGSGGGGSDIQLTQSPSSLSASVGDRVTITCRASRTISIYVNWYRQRPGKAPESLIYAASNLHSGVPSRFSGSGSGTDFTLTISSLQPEDFATYYCQQSIGRGVVTFGQGTKLEIK
On to B15, for which the binding result in [12] is listed as “binds”.
